Peptide text beside a SMILES is read from it. * marks the point of attachment. Palmitoyl = CCCCCCCCCCCCCCCC(=O)*
Assay: mineralization of PA fibers on TEM grid with CaCl2 and Na2HPO4

SMILES: CCCCCCCCCCCCCCCC(=O)N[C@@H](CS)C(=O)N[C@@H](CS)C(=O)N[C@@H](CS)C(=O)N[C@@H](CS)C(=O)NCC(=O)NCC(=O)NCC(=O)N[C@@H](CO)C(=O)N[C@@H](CCCNC(=N)N)C(=O)NCC(=O)N[C@@H](CC(=O)O)C(=O)O [PA 14, CCCCGGGSRGD] (Palmitoyl-CCCCGGGSRGD-OH)
- mineral observed by TEM (20 min incubation with CaCl2 and Na2HPO4, listed as Nonphosphorylated PA): only amorphous mineral deposit concentrate on the fibers
- mineral observed by TEM (20 min incubation with CaCl2 and Na2HPO4, listed as nonphosphorylated fibers): an amorphous mineral deposit around the fibers was observed, but crystals did not form within this time frame
- mineral observed by TEM (30 min incubation with CaCl2 and Na2HPO4, listed as Nonphosphorylated PA): continue to show only amorphous mineral
- mineral observed by TEM (30 min incubation with CaCl2 and Na2HPO4, listed as nonphosphorylated fibers): an amorphous mineral deposit around the fibers was observed, but crystals did not form within this time frame
